39 sequences from article PMC7862700 can be followed below.

The entries are a selection whose mix differs from that of the whole data set. At the low end of the ranking the order means little.

The target of this test is T1, ELF5 (UniProt Q9UKW6-2).
T1 sequence: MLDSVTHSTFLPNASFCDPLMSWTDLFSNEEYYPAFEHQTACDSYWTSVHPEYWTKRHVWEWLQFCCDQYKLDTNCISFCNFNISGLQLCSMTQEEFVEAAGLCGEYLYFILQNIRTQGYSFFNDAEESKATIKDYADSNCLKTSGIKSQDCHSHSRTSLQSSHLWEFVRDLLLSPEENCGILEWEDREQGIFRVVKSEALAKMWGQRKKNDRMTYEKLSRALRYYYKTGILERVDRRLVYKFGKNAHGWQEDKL
Briefly: DAPPL (digital affinity profiling via proximity ligation, sequencing). The conditions noted are these: 10 mM Tris-HCl pH 7.5, 50 mM NaCl, 1 mM DTT, 4% glycerol, room temperature, 30 min; GST-TFs on glutathione beads, 16-mer random dsDNA library, 0.1% …; high values mean tight binding; double strand, one strand shown; scale: fold enrichment (6-mer frequency, TF over GST control).
On to AGTTCT, for which the binding signal is 1.15. With ACCGCC the figure was 1.23. As for CAACTA, the binding signal amounted to 1.26.

Consider TACGGA, for which the binding signal amounted to 1.51. For the sequence CTAGTA, the binding signal came out at 1.08. Take TCCTTA: the binding signal amounted to 2.6. With CCTAGC the figure was 1.06. With TTGGGG the figure was 1.14. For CGTTCT, the binding signal came to 1.44.

CGAAAT had a binding signal of 0.956.

CATAAT had a binding signal of 0.985. CGAACC gave a binding signal of 1.09. The sequence AGCCCA returned a binding signal of 0.9. With TTAAGA the figure was 0.971; with GTTTTT, 1.36; with TTGGGC, 0.973. With ATCCCA the figure was 1.17; with GGCTAA, 0.939. The figure for TTCTAG is 1.2; for CTCATA it is 1.39.

As for TCCTGG, the binding signal was 2.35. In turn, GCTTTT displayed a binding signal of 1.06. With TCAGCC the figure was 0.895. With CCCGCT the figure was 1.39; with GCCGAT, 0.996; with TAGAAC, 0.926. CCTCGG: the binding signal was determined as 1.2. AGCACT displayed a binding signal of 1.52.

In turn, TCTGTG had a binding signal of 1.04.

GTAATA had a binding signal of 1.2.

On to CCCCGC, for which the binding signal was determined as 1.07. CAGCTA registered a binding signal of 0.953. Sequence ACCGCT gave a binding signal of 1.05. With ACTCAT, the binding signal stood at 1.32. AAAACC gave a binding signal of 1.19. Turning to GTTCTG, the binding signal was 1.1. The figure for TAGCCT is 1.17; for TAATAC it is 1.09. With AACTCC the figure was 1.32.
